Laboratory results from patent publication US20200055942A1.
These are yes or no findings as the source states them, for the method shown. Some binding calls cover weakened binding; strength is not graded here.

Amino acid sequences for entries named in this document (tags omitted). A change or cut given only in a name is not applied to a line headed by its entry.
UniProt P16109: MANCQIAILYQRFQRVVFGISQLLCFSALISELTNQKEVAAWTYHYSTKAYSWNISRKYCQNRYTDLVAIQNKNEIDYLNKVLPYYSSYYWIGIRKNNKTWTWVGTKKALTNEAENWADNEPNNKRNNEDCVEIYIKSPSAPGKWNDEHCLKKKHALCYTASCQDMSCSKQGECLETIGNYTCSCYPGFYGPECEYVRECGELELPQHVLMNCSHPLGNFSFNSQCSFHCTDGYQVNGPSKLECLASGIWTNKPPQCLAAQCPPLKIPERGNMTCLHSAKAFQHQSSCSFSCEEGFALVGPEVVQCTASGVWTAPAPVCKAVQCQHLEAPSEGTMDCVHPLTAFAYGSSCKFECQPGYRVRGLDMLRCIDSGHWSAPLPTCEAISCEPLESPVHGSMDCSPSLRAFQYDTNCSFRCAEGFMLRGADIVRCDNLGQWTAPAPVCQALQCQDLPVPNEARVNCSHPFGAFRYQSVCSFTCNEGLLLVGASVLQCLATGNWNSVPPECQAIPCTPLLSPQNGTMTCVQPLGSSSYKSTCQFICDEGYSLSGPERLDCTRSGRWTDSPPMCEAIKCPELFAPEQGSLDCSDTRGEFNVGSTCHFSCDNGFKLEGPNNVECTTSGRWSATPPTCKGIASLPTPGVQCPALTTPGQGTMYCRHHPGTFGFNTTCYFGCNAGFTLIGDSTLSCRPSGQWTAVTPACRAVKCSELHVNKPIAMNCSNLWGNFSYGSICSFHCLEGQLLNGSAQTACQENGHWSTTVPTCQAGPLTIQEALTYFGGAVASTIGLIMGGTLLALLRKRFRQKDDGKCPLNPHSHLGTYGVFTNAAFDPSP

Molecular target: P-selectin (Homo sapiens (Human)) (UniProt P16109)
Experiment: SPR inhibition assay on patient serum (ex vivo pharmacodynamics); blocks PSGL-1

B1: SelG1 (Crizanlizumab) (antibody, human IgG2, kappa, V domains shown)
VH: QVQLVQSGAEVKKPGASVKVSCKVSGYTFTSYDINWVRQAPGKGLEWMGWIYPGDGSIKYNEKFKGRVTMTVDKSTDTAYMELSSLRSEDTAVYYCARRGEYGNYEGAMDYWGQGTLVTVSS
VL: DIQMTQSPSSLSASVGDRVTITCKASQSVDYDGHSYMNWYQQKPGKAPKLLIYAASNLESGVPSRFSGSGSGTDFTLTISSLQPEDFATYYCQQSDENPLTFGGGTKVEIKR
binding: binds
